Data as given in PubChem BioAssay AID504804 (Drosophila RNAi Screening Center, 2011)
The screen tested about 19,000 reagents; below is an unselected part of those with a known target gene and a result. In the full data, 47 (0.25%) were called active. 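Signals are raw, not normalised; exact z-scores behind calls not deposited; actives needed confirmation, so some wells reaching 2 SD are inactive.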

Test: 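Fly genes whose loss lessens doxorubicin-driven cell death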 (primary screen)
Cell system: Drosophila Kc cells
Knock-down reagent: long dsRNA against Drosophila genes, 0.5 µg dsRNA per well
Timing: 96 h (48 h knock-down, then 48 h drug)
Conditions: doxorubicin 5 µg/ml for 48 h, added 48 h after dsRNA
Read-out: 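Luminescent ATP counts per replicate, not normalised, reflecting viable cells after 48 h dsRNA knock-down followed by 48 h of 5 µg/ml doxorubicin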
Reading the numbers: raw ATP luminescence: higher = more viable cells, protection from doxorubicin
Hit rule: 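z-score of 2 or more over plate mean in both duplicates, retained only when retests and separate dsRNAs confirm the protection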

CG13983 (GeneID 33875) [SID104182107] | raw ATP luminescence, replicate 1 = 25133; raw ATP luminescence, replicate 2 = 28910; activity call = inactive
msk (GeneID 44747) [SID104191132] | raw ATP luminescence, replicate 1 = 33203; raw ATP luminescence, replicate 2 = 41793; activity call = inactive
CG14636 (GeneID 40526) [SID104192015] | raw ATP luminescence, replicate 1 = 61993; raw ATP luminescence, replicate 2 = 65107; activity call = inactive
Tusp (GeneID 43317) [SID104195630] | raw ATP luminescence, replicate 1 = 31790; raw ATP luminescence, replicate 2 = 41930; activity call = inactive
CG9853 (GeneID 40557) [SID104192135] | raw ATP luminescence, replicate 1 = 14873; raw ATP luminescence, replicate 2 = 26510; activity call = inactive
CG17266 (GeneID 35571) [SID104184771] | raw ATP luminescence, replicate 1 = 45240; raw ATP luminescence, replicate 2 = 66843; activity call = inactive
CG15642 (GeneID 32476) [SID104199470] | raw ATP luminescence, replicate 1 = 3.15e5; raw ATP luminescence, replicate 2 = 3.10e5; activity call = inactive
beta-PheRS (GeneID 42888) [SID104195651] | raw ATP luminescence, replicate 1 = 47777; raw ATP luminescence, replicate 2 = 43993; activity call = inactive
CG13449 (GeneID 39695) [SID104189788] | raw ATP luminescence, replicate 1 = 41590; raw ATP luminescence, replicate 2 = 34427; activity call = inactive
CG7742 (GeneID 33750) [SID104182858] | raw ATP luminescence, replicate 1 = 1.29e5; raw ATP luminescence, replicate 2 = 87463; activity call = inactive
mus101 (GeneID 48309) [SID104199180] | raw ATP luminescence, replicate 1 = 2.18e5; raw ATP luminescence, replicate 2 = 2.52e5; activity call = inactive
akirin (GeneID 38821) [SID104190792] | raw ATP luminescence, replicate 1 = 35740; raw ATP luminescence, replicate 2 = 34553; activity call = inactive
CG30487 (GeneID 246646) [SID104185169] | raw ATP luminescence, replicate 1 = 75810; raw ATP luminescence, replicate 2 = 84870; activity call = inactive
CG13045 (GeneID 39792) [SID104189718] | raw ATP luminescence, replicate 1 = 60493; raw ATP luminescence, replicate 2 = 46167; activity call = inactive
CG10553 (GeneID 43064) [SID104194046] | raw ATP luminescence, replicate 1 = 70610; raw ATP luminescence, replicate 2 = 61880; activity call = inactive
egr (GeneID 36054) [SID104186025] | raw ATP luminescence, replicate 1 = 52477; raw ATP luminescence, replicate 2 = 80647; activity call = inactive
grn (GeneID 40962) [SID104192458] | raw ATP luminescence, replicate 1 = 58627; raw ATP luminescence, replicate 2 = 19070; activity call = inactive
grn (GeneID 40962) [SID104196753] | raw ATP luminescence, replicate 1 = 70820; raw ATP luminescence, replicate 2 = 72607; activity call = inactive
Sh3beta (GeneID 38820) [SID104190793] | raw ATP luminescence, replicate 1 = 29433; raw ATP luminescence, replicate 2 = 47120; activity call = inactive
Snrk (GeneID 36579) [SID104186984] | raw ATP luminescence, replicate 1 = 43287; raw ATP luminescence, replicate 2 = 43557; activity call = inactive
l(1)10Bb (GeneID 32069) [SID104200138] | raw ATP luminescence, replicate 1 = 2.42e5; raw ATP luminescence, replicate 2 = 2.42e5; activity call = inactive
Ddr (GeneID 3346209) [SID104180714] | raw ATP luminescence, replicate 1 = 2.88e5; raw ATP luminescence, replicate 2 = 3.17e5; activity call = inactive
Ddr (GeneID 3346209) [SID104180715] | raw ATP luminescence, replicate 1 = 2.81e5; raw ATP luminescence, replicate 2 = 2.95e5; activity call = inactive
Ddr (GeneID 3346209) [SID104181942] | raw ATP luminescence, replicate 1 = 48650; raw ATP luminescence, replicate 2 = 36370; activity call = inactive
Ddr (GeneID 3346209) [SID104183021] | raw ATP luminescence, replicate 1 = 29380; raw ATP luminescence, replicate 2 = 28370; activity call = inactive
Ddr (GeneID 3346209) [SID104183022] | raw ATP luminescence, replicate 1 = 22897; raw ATP luminescence, replicate 2 = 34973; activity call = inactive
GstO3 (GeneID 38972) [SID104190502] | raw ATP luminescence, replicate 1 = 85970; raw ATP luminescence, replicate 2 = 97240; activity call = inactive
CG4496 (GeneID 34000) [SID104182545] | raw ATP luminescence, replicate 1 = 23540; raw ATP luminescence, replicate 2 = 38963; activity call = inactive

A portion taken from the entries so far, as a working copy:
Ddr (GeneID 3346209) [SID104180714] | raw ATP luminescence, replicate 1 = 2.88e5; raw ATP luminescence, replicate 2 = 3.17e5; activity call = inactive
Ddr (GeneID 3346209) [SID104180715] | raw ATP luminescence, replicate 1 = 2.81e5; raw ATP luminescence, replicate 2 = 2.95e5; activity call = inactive
Ddr (GeneID 3346209) [SID104181942] | raw ATP luminescence, replicate 1 = 48650; raw ATP luminescence, replicate 2 = 36370; activity call = inactive
